Experimental data: publication PMC11076283
No constants are given. Whether binding was seen depends on the method and setting. In cells and extracts the contact can be indirect. Some binding calls cover weakened binding; strength is not graded here.

The chains behind the UniProt entries cited, without tags or fusion partners.
UniProt Q9NY57: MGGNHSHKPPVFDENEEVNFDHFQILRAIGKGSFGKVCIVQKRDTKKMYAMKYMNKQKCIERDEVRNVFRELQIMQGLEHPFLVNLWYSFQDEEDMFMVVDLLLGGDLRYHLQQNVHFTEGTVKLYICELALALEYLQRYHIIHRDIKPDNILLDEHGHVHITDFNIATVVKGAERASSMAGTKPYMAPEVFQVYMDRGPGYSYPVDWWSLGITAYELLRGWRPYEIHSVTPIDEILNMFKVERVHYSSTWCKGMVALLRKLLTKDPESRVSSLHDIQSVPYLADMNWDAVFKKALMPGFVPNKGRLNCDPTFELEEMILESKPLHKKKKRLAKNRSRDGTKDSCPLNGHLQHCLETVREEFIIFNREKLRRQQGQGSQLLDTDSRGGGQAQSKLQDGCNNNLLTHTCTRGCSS
UniProt P06241: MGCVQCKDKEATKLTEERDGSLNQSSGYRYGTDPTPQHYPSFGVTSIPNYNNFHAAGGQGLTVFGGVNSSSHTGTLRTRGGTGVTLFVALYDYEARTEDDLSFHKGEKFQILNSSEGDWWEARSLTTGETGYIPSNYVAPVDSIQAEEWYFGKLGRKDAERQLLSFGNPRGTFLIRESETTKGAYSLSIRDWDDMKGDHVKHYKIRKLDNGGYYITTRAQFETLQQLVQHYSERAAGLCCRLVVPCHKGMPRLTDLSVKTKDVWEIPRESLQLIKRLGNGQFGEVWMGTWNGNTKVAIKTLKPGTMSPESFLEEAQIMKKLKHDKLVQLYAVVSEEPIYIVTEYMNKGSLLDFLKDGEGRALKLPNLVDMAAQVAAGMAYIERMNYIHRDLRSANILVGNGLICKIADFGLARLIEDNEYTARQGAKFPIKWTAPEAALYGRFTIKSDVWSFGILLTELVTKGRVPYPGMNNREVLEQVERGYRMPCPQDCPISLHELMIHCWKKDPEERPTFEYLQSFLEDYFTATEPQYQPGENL

Legend:
[1] = target: His-YANK2-Flag (human) (UniProt Q9NY57); assay: pull-down; HEK293T cells co-transfected for 48 h with pCMV-His-YANK2-Flag and the partner plasmid; pulldown with Ni-NTA beads; blot with anti-Myc or anti-HA
[2] = target: Endogenous YANK2 (human (endogenous in U87MG and Hs683)) (UniProt Q9NY57); assay: co-IP; endogenous YANK2 immunoprecipitated from glioma cells (U87MG or Hs683); blot with anti-Fyn or anti-p70S6K

binding [1] | binding [2] | Substance
binds |  | Myc-Fyn-Flag (from UniProt P06241 1-537) (enzyme)
 | binds | Endogenous Fyn (from UniProt P06241 1-537) (enzyme)
